# About 2,100 (0.66%) of roughly 320,000 compounds were called active. Inconclusive means that the source gave no clear call. Such entries were picked first, then a sample of the others. The call rests on the fitted dose curve; in most records, active means well fitted inhibition curve with a large enough effect in the signal ratio, with a control signal flat (not every such curve was filed as active); inconclusive means small, poorly fitted or top-dose-only effect, or effect the other way, or a change in a side signal; inactive means flat fitted curve, though single readings scatter; the % refers to the signal ratio. Where the call is inconclusive, the potency comes from a doubtful curve fit.
# Test: qHTS Assay for Lipid Storage Modulators in Drosophila S3 Cells
# Conditions: BODIPY lipid droplet fluorescence, 18-24 h, cells fed with added oleic acid; lipid storage change, negative = inhibition: at 46.1 µM (top of the series) unless noted
# Procedure, shortened: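 Drosophila S3 cells loaded with oleic acid (400 uM, as added) and compounds at several concentrations; lipid droplets imaged by 488-nm laser-scanning cytometry, 500–530 nm intensity and object ratio to cell channel. Percent activity normalized to 20 uM Triacsin C.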
# On the % scale 0 is the no-effect control and ±100 the full control effect; potency means the concentration at half of the fitted maximal effect.
SMILES,Potency,"lipid storage change, negative = inhibition"
COc1cc(C(=O)NCCC(=O)NC2CCCc3ccccc32)cc(OC)c1OC (configuration not stated),"inconclusive: 6.51 µM [falling, single point]",
COCCN(C(=O)CSc1nnc(-c2cccc(C)c2)n1C)c1c(N)n(Cc2ccccc2)c(=O)[nH]c1=O,,inconclusive: -32.7%
Cc1cccc(-c2noc(CN(C(=O)C(c3ccccc3)c3ccccc3)C(C)C)n2)c1,,inconclusive: -61.7%
O=C(NCc1ccc(Cl)cc1Cl)c1ccc2nc[nH]c2c1,"inconclusive: 2.31 µM [activator, full curve]",
COc1ccccc1N1CC(C(=O)OCc2nc(N)nc(Nc3ccccc3)n2)CC1=O (configuration not stated),"inconclusive: 0.731 µM [activator, full curve]",
NC(=O)c1ccccc1OCC(=O)Nc1ccc2c(c1)CCC2,"inconclusive: 3.26 µM [falling, partial curve, poor fit]",
O=C(CCCN1C(=O)c2cccnc2C1=O)Nc1ccc(Br)cc1,,inconclusive: -31%
CC(=O)Oc1ccc(C(C)=O)c2c1OCCO2,"inconclusive: 0.0164 µM [falling, full curve, poor fit]",
O=C(NCC1CCCN(C(=O)CN2CCCCC2)C1)c1ccccc1Cl (configuration not stated),,inconclusive: -9.94%
Cc1cccc(OCC(=O)NCc2nc(-c3ccccc3)no2)c1,,inconclusive: -5.69%
O=C(Nc1ccccc1)C(c1ccccc1)C1CCCC1 (configuration not stated),,inconclusive: -25.1%
CC(C)c1ccc2[nH]c3c(c2c1)CCC/C3=N\NC(=O)c1ccncc1,"inconclusive: 25.9 µM [falling, single point]",
CCOC(=O)c1cccc(NC(=O)C2(S(=O)(=O)c3ccc(Cl)cc3)CC2)c1,"inconclusive: 1.03 µM [falling, single point]",
O=C(CSc1cccc[n+]1[O-])c1cc(Cl)ccc1Cl,,inconclusive: -9.29%
CN(CCc1ccccn1)C(=O)CCC1CCCN(C(=O)c2ccc3c(c2)OCCO3)C1 (configuration not stated),,inconclusive: -24.5%
CCCn1nnc(NC(=O)C(C)Oc2ccc(Cl)cc2Cl)n1 (configuration not stated),"inconclusive: 0.164 µM [activator, full curve, poor fit]",
CS(=O)(=O)N1CCN(c2ccccc2NC(=O)CSc2nnc(-c3ccco3)o2)CC1,,inconclusive: 4.63%
O=C(O)c1cc([N+](=O)[O-])cc2c1C=Cc1ccccc1O2,"inconclusive: 29.1 µM [activator, single point]",
COc1ccc(C)cc1NC(=O)C1CCN(S(=O)(=O)c2cccs2)CC1,,inconclusive: -100%
CN(C)S(=O)(=O)c1cc(S(=O)(=O)N(C)C)c(Cl)cc1N,,inconclusive: 37.9%
Brc1cnc2nc[nH]c2c1,"inconclusive: 0.184 µM [falling, full curve, poor fit]",
CCCCn1c(=O)[nH]c(=O)c2c1nc(Cn1ncc(Cl)c(Cl)c1=O)n2CCC,active: 9.2 µM,
CCC(=O)Nc1cccc(C(=O)N(Cc2ccccc2)Cc2ccccc2)c1,,inconclusive: -70.3%
O=S(=O)(/C=C/c1ccccc1)Nc1cccc(S(=O)(=O)NC2=NCCC2)c1,,inconclusive: -5.21%
C=CCNc1nc(-c2ccc([N+](=O)[O-])cc2)cs1,,inconclusive: 1.72%
c1ccc(-c2ccccc2OCCCN2CCCCCC2)cc1,,inconclusive: -27.2%

SMILES,Potency,"lipid storage change, negative = inhibition"
CCC(CC)NC(=O)Nc1ccc(C)cc1,,inactive
CCOc1cc(-c2nc3cc(C)ccn3c2NCC2CCCO2)ccc1O (configuration not stated),,inconclusive: 6.53%
CCn1cc(/C=N\NC(=O)c2ccccc2Cl)cn1,,inconclusive: 5.21%
O=C(O)c1c(N2CCCCC2)ccc([N+](=O)[O-])c1N1CCCCC1,,inconclusive: 9.6%
CCCC[C@H]1COCCS(=O)(=O)N1Cc1ccc(F)cc1,,inconclusive: -8.84%
Nc1nc(SCC(=O)NC2CCCCCC2)[nH]c(=O)c1-c1ccccc1,"inconclusive: 0.0058 µM [falling, full curve, poor fit]",
Cc1ccc(S(=O)(=O)N(C)C)cc1NC(=O)COC(=O)C1COc2ccccc2O1 (configuration not stated),,inconclusive: 62.5%
O=C(C(c1ccccc1)c1ccccc1)N1CCN(Cc2ccncc2)CC1,,inconclusive: -1.85%
Cc1cc(C)n2ncnc2n1,,inconclusive: 0.0504%
CN(Cc1ccon1)C(=O)CC1C(=O)NCCN1Cc1cccc(F)c1F (configuration not stated),,inconclusive: 32%
O=C1CC(C(=O)O)S/C(=N\NC(=O)c2ccccc2)N1 (configuration not stated),"inconclusive: 25.9 µM [cytotoxic, partial curve]",
CCOc1ccc(NC(=O)NCc2ccccn2)cc1,,inconclusive: 70.4%
O=C1c2cccc(OCC(=O)N3CCCc4ccccc43)c2CCN1Cc1ccc(F)cc1,"inconclusive: 6.51 µM [activator, single point]",
CCC(c1nnc(SCC(=O)Nc2cc(S(C)(=O)=O)ccc2Cl)n1Cc1ccccc1)N(C)C (configuration not stated),,inconclusive: 13.2%
COc1cccc(NC(=O)CN(C)C(=O)CCc2nc3sc4c(c3c(=O)[nH]2)CCCC4)c1,"inconclusive: 2.31 µM [falling, single point]",
Cc1cc(C)cc(NC(=O)CN2CCN(c3ccccn3)CC2)c1,active: 16.4 µM,
Cc1ccn(-c2cc(O)c(-n3ccc(C)n3)cc2O)n1,,inconclusive: -11%
CCN(C(=O)CN1CCC(C)CC1)c1c(N)n(Cc2ccccc2)c(=O)[nH]c1=O,"inconclusive: 29.1 µM [rising, single point]",
CCN(CC)C(=O)CN(c1cc(Cl)ccc1OC)S(=O)(=O)c1ccc(C)c([N+](=O)[O-])c1,,inconclusive: 37.5%
CC(C(=O)OCC(=O)c1cccc([N+](=O)[O-])c1)N1C(=O)C2C3C=CC(C3)C2C1=O (configuration not stated),"inconclusive: 2.31 µM [activator, full curve]",
CCN(CC1COc2ccccc2O1)C(=O)CN1C(=O)NC(C)(c2ccccc2)C1=O (configuration not stated),,inconclusive: -33.9%
COc1ccc(NC(=O)c2cc(CC(C)C)nc3ccccc23)cc1,,inconclusive: 13.6%
CC1CC(C)CN(CC(O)COCc2ccccc2)C1 (configuration not stated),,inconclusive: 15.3%
O=C(C(c1ccccc1)c1ccccc1)N1CCN(CC(O)COc2ccccc2)CC1 (configuration not stated),active: 4.61 µM,
CCOc1ccccc1NC(=O)NNC(=O)COc1cccc(C)c1C,,inconclusive: 5.76%
COc1ccc(-n2nc([N+](=O)[O-])c(=NCc3ccc4c(c3)OCO4)n2O)cc1,"inconclusive: 29.1 µM [rising, single point]",

# Quoted at random: four entries already listed
SMILES,Potency,"lipid storage change, negative = inhibition"
O=C1c2cccc(OCC(=O)N3CCCc4ccccc43)c2CCN1Cc1ccc(F)cc1,"inconclusive: 6.51 µM [activator, single point]",
Brc1cnc2nc[nH]c2c1,"inconclusive: 0.184 µM [falling, full curve, poor fit]",
CCC(=O)Nc1cccc(C(=O)N(Cc2ccccc2)Cc2ccccc2)c1,,inconclusive: -70.3%
CCn1cc(/C=N\NC(=O)c2ccccc2Cl)cn1,,inconclusive: 5.21%

# Following part

SMILES,Potency,"lipid storage change, negative = inhibition"
CN(C)CCn1c(C(=O)Nc2ccccc2)cc2ccccc21,"inconclusive: 32.6 µM [falling, single point]",
OC(CNCC(c1ccco1)N1CCCCC1)c1ccccc1 (configuration not stated),,inconclusive: -35.7%
CCC(C)Sc1ccc([C@@H]2[C@@H]3C(=O)N(C)C(=O)[C@@H]3[C@]3(C(=O)OC)CCCCN23)cc1 (some centres not stated),,inconclusive: -22.9%
COc1cccc(N2CN(CCc3ccccc3)CNC2=S)c1,,inconclusive: 2.29%
Cc1[nH]nc2c1C1(CCC(c3ccccc3)CC1)C(C#N)=C(N)O2 (configuration not stated),"inconclusive: 0.206 µM [activator, full curve, poor fit]",
Cc1ccc(O)c(N=NC2=C(O)CC(C)(C)CC2=O)c1,,inconclusive: -120% [cytotoxic]
Cc1ccc([N+](=O)[O-])cc1S(=O)(=O)Nc1ccc(N2CCOCC2)cc1,"inconclusive: 29.1 µM [activator, single point]",
CCC1CCCCN1CC(O)Cn1c2ccccc2n2c(=O)cc(C)c(C#N)c12 (configuration not stated),,inconclusive: 15.2%
Cc1cccc(C(C)C)c1NS(=O)(=O)c1cn(C)nc1C,,inconclusive: 18.8%
CC(=O)Nc1ccc(NC(=O)COC(=O)c2n[nH]c3ccccc23)cc1,,inconclusive: -27.2%
Cc1noc(C)c1COc1ccccc1C(=O)NNC(=O)c1ccccc1,,inconclusive: 34.5%
COCCc1ncc(CN2CCCCC2C(=O)Nc2ccc(Oc3ccccc3)nc2)cn1 (configuration not stated),,inconclusive: -32.7%
CC(C)c1ccc(CNCCCSc2ncccn2)cc1,,inactive
COc1cccc2cc(C(=O)N3CCN(C/C=C/c4ccccc4)CC3)c(=O)oc12,"inconclusive: 0.291 µM [activator, full curve, poor fit]",
Cn1c(NC(=O)CC2CCCCC2)cc(=O)n(C)c1=O,,inconclusive: 13.9%
Cc1nn(-c2ccccc2)c(=S)c2ccccc12,,inconclusive: 21%
O=C(CSc1nnc(CNC(=O)c2c(F)cccc2Cl)o1)NC1CCCC1,"inconclusive: 29.1 µM [activator, single point]",
O=C(CCCc1ccccc1)NCc1ccccc1,,inconclusive: 32.1%
Fc1ccc(/C=N/N2CCN(Cc3ccccc3)CC2)cc1,"inconclusive: 29.1 µM [falling, single point]",
Cc1ccccc1C(=O)Nc1cccc(NC(=O)c2ccccc2[N+](=O)[O-])c1,"inconclusive: 3.66 µM [falling, partial curve]",
CC1CN(S(=O)(=O)c2cccc(C(=O)NNC(=O)C(C)Oc3ccccc3F)c2)CC(C)O1 (configuration not stated),,inconclusive
CN(C)CCNC(=S)Nc1ccc(Cl)cc1Cl,,inconclusive: -3.93%
C=CCn1c(CCNC(=O)c2ccccc2F)nnc1SCC(=O)Nc1nc2ccccc2s1,,inconclusive: -28.3%
COCCN(C(=O)COC(=O)CC1CCCCC1)c1c(N)n(Cc2ccccc2)c(=O)[nH]c1=O,,inconclusive: -55.2%
O=C(NNC(=O)c1cccc(Br)c1)C(=O)N1CCCCC1,,inconclusive: -8%
